# Screening data, single-dose tests

Sequences of proteins named here, by UniProt entry; tags and fusion partners are left off.
UniProt P9WPC5, whole entry: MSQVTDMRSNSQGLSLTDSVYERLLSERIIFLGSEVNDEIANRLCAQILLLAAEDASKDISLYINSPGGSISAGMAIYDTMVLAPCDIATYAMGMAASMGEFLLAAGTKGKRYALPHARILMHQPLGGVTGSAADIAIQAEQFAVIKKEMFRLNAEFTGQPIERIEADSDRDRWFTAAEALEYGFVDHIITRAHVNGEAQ
UniProt P9WPC3, whole entry partner: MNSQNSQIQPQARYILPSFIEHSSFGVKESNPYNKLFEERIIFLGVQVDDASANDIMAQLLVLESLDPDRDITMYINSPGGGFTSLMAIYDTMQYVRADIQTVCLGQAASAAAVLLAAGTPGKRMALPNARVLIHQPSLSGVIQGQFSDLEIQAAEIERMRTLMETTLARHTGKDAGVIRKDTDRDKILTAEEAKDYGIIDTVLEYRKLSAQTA
UniProt P9WNZ1, whole entry: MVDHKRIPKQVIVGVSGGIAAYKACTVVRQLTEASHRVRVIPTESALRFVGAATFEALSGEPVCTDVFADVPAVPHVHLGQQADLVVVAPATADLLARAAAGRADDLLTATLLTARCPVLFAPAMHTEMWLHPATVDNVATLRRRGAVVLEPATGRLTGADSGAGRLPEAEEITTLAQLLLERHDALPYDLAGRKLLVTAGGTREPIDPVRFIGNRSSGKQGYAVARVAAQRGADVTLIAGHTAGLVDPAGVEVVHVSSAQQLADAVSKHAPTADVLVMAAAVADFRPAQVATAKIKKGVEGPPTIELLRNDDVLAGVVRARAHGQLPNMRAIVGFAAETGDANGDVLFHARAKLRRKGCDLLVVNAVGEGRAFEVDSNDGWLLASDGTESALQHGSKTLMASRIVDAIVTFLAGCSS

From ChEMBL document CHEMBL3988442, “University of Dundee, Small-Polar-MMV Screening Library” (2021).

Toxoplasma: 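Assay of Toxoplasma gondii numbers, read through their beta-galactosidase reporter with a colour substrate. Compounds at 10 µM. The record gives no direction; the compounds picked for IC50 retests had high values, so higher reads as fewer parasites. About 67,000 compounds were tested under these conditions; 0.38% (about 260) showed 50% or more at least once.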
ClpP1P2: 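ClpP1P2, Mycobacterium tuberculosis (UniProt P9WPC5 and UniProt P9WPC3). Protease assay of ClpP1P2, read by the AMC dye that it sets free. Compounds at 50 µM. Higher reads as stronger inhibition, judged from the few compounds that gave an IC50. Most other retested compounds had strongly negative values. About 69,000 compounds were tested under these conditions; 0.015% (about 10) showed 50% or more at least once.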
T. brucei: 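Whole-parasite assay of Trypanosoma brucei over 72 hours; the read-out is not stated. Tested at 30 µM. The record gives no direction; compounds that gave an IC50 in retests scored well above the rest, so higher reads as stronger inhibition. Values scatter widely below zero; nearly all retest evidence comes from the higher of the two concentrations used. Of about 64,000 compounds tested this way, about 940 (1.5%) reached 50% or more in at least one test.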
CoaBC: 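Coenzyme A biosynthesis protein CoaBC, Mycobacterium tuberculosis (UniProt P9WNZ1). Enzyme assay of CoaBC with a phosphate dye (Biomol Green) read at 650 nm. Concentration: 30 µM. Higher reads as stronger inhibition, judged from the few compounds that gave an IC50. Most strong results did not repeat in a second test. About 67,000 compounds were tested under these conditions; 0.06% (about 40) showed 50% or more at least once.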

Values are the deposited “Percent Effect”, in %.
The controls that fix the scale are not given in the record; negative values are as filed.
Compounds were drawn at random from those tested, without regard to their results.
A dash means the value is not listed here; it may have been measured.

compound,Toxoplasma,ClpP1P2,T. brucei,CoaBC
COc1cccc(CC(=O)N2CCC(NCc3c[nH]nc3C)CC2)c1,26.4,-6.318,-,7.846
O=C(O)C(F)(F)F.O=C(O)C(F)(F)F.[H][C@]12CCCC(N3CCN(c4ncccn4)CC3)[C@@]1([H])CN(C(C)=O)C2 (stereo partly shown),-1.746,-,-12.6,-
[H][C@]12CC[C@]([H])(C1)N(C(=O)c1cccnc1-c1ccoc1)C2,4.744,-,-25.58,-
CCC(Nc1ccc(CCN2CCCCC2)cc1)C(N)=O (stereo not shown),-5.551,2.343,-39.74,4.391
CC(C)CCN1CCC2(CC1)NCc1ccccc1NC2=O,6.994,-2.193,-,-0.7895
O=C(O)C(F)(F)F.O=C(O)C(F)(F)F.[H][C@@]12C[C@@H](Oc3cncnc3)CN1CCN(C(=O)Cc1ccccn1)C2,-13.99,-,-199.8,-
CCOCCCC(=O)NCC(c1ccccc1)N1CCc2sccc2C1 (stereo not shown),35.83,-17.62,4.236,5.714
CN(C)c1ccc(C(=O)N2CCCC2c2noc(C3CC3)n2)nn1 (stereo not shown),8.669,-10.6,-,0.1245
Cc1n[nH]c(C2CN(C(=O)c3cc(C4CC4)on3)CCO2)n1 (stereo not shown),-4.805,-6.262,1.513,1.186
CC(C)N(C)C(=O)C1=NOC2(CCN(C(=O)c3ccccn3)C2)C1 (stereo not shown),-2.55,-2.385,-8.724,2.796
O=C(CN1C(=O)CCC1=O)NCC1(O)CCc2ccccc21 (stereo not shown),-4.287,-8.325,12.58,-3.321
Cc1cc(C)nc(Nc2cccc(C3CCCN(C)C3)n2)n1 (stereo not shown),-,0.3098,-,1.389
O=C(N1CCCC1)N1CCN(CC2CC2)c2ncccc2C1,0.05546,-0.05855,-2.892,12.18
CCN(CCn1cccn1)Cc1nc(-c2cc(F)ccc2F)oc1C,-14.61,-8.795,-8.913,-10.06
CN(C)[C@@H]1CCN(c2ncc(F)cn2)[C@H]1Cc1cccnc1.O=C(O)C(F)(F)F.O=C(O)C(F)(F)F,8.867,-,-7.337,-
CN1CCCN(C[C@@H]2CN(C(=O)N3CCOCC3)C[C@@H]2CO)CC1,17.78,-18.39,0.7249,0
O[C@H]1[C@H](n2cc(-c3ccccn3)nn2)c2ccccc2C12CCNCC2,12.95,-3.934,-21.98,-26.63
O=C(NS(=O)(=O)Cc1ccon1)c1ccsc1,5.978,-5.579,16.7,-5.242
Cc1ccsc1C(Cn1ccnc1-c1ccccc1C(=O)O)N(C)C (stereo not shown),17.15,-8.441,-13.27,3.836
O=C(c1ccc(-c2nc[nH]n2)cc1)N1CC[C@H](CO)[C@@H](O)C1,0.6699,14.3,-8.79,2.539
COc1cccc(-c2n[nH]cc2C(=O)NC(C)c2n[nH]c(C)n2)c1 (stereo not shown),-2.423,14.56,-6.039,-5.714
COCCOC[C@]1(CNCc2ccc(OC)cc2)C[C@@H](O)[C@@H](O)C1.Cl,-3.681,-,-9.495,-
O=C(NCc1cc2n(n1)CCCNC2)C1(c2ccccc2)CCCCC1,19.5,-6.973,6.496,-8.557
CNC(=O)C1Cn2ccnc2C2(CCN(Cc3cccc(C)n3)CC2)O1 (stereo not shown),-,-8.235,-,2.057
O=C(O)C(F)(F)F.O=C(O)C(F)(F)F.[H][C@@]12C[C@@H](OCc3ccccn3)CN1CCN(C(=O)c1ccc(F)cc1)C2,-2.098,-,-,-
[H][C@@]12COC[C@]1(COCc1ccncc1)CN(C(=O)C1=CCCC1)C2,-36.12,-,-48.92,-
CCN(CC)C(=O)c1cc(Br)cc(S(=O)(=O)N2CCOCC2)c1F,-0.1297,-3.292,-23.86,-
COC(=O)c1ccc(NC(C)c2ccc3c(c2)CC(=O)N3)nn1 (stereo not shown),-2.632,13.53,-35.48,3.367
Cc1cc(CN(C)C(=O)NCc2ccccn2)no1,-17.32,2.653,-8.559,10.71
CN(C)C(=O)CCC[S+]([O-])Cc1cc(Cl)ccc1Cl (stereo not shown),-1.786,7.227,-10.03,3.64
CC(=O)NC(C)c1ccc(OCC2CC2)c(F)c1 (stereo not shown),0.05028,-9.026,12.87,2.024
O=C([C@@H]1COC[C@H]2CN(c3ccncn3)C[C@H]21)N1CCCC1,-,-6.796,-,9.368
COc1cc(C)c(S(=O)(=O)CC(=O)N(C)C2CC2)cc1OC,20.87,-9.416,-33.85,-3.151
COc1ccccc1C(=O)NC(CC(=O)O)c1cccs1 (stereo not shown),3.881,9.733,21.07,7.572
Cc1ccc(-c2cc(C(=O)NCCN3CCCS3(=O)=O)[nH]n2)o1,-2.807,-28.6,-,3.836
O=C(O)C(F)(F)F.O=C(O)C(F)(F)F.[H][C@@]12CN(Cc3cc[nH]n3)C[C@]1([H])OCCN2C(C)C,-33.1,-,8.827,-
COCc1nccc(C2CCCN(Cc3ccc(C#N)cc3)C2)n1 (stereo not shown),-52.89,-9.771,-4.834,0.9823
Cc1nccn1C1CCCN(C(=O)c2cccc(Cn3ccnc3)c2)C1 (stereo not shown),10.16,-6.695,-,-0.7168
CC(C)c1cccc(S(=O)(=O)NCCCN2CCC(O)CC2)c1,-0.8738,-5.313,5.991,0.8526
[H][C@@]12CCCO[C@]1([H])[C@@H](OC)CN2S(=O)(=O)c1cn(C)cn1,-10.07,-,2.018,-
O=C(C1CCC1)N1CCc2[nH]cnc2C12CCN(C1CCOCC1)CC2,4.273,-1.27,-46.08,3.636
Cc1ncc2c(n1)C1(CCN(C(=O)C(C)C)CC1)OCC2,-,-14.36,-,-6.165
CCN(C(=O)NCc1ncc(C)c(OC)c1C)C(C)c1cccnc1 (stereo not shown),-,-16.84,-16.79,-1.353
COc1ccc(C)cc1CN1CCCC1Cn1nc(C)nc1C (stereo not shown),4.893,4.868,103.3,4.439
Cc1cc(C)n(C2CCCN(C(=O)c3csc(C4CC4)n3)C2)n1 (stereo not shown),9.935,-4.134,-9.327,2.999
Cc1ccc(N2CC3(COCCN(Cc4ccccn4)C3)OCC2=O)s1 (stereo not shown),-,8.954,-,-0.6316
O=C(O)C(F)(F)F.O=C(O)C(F)(F)F.O=C1Nc2ccccc2C12CCN(Cc1ccccn1)CC2,-9.283,-,-9.939,-
COCCN1CCC1c1cc(N)nc(C)n1 (stereo not shown),13.55,-25.17,-10.98,-3.398
Cc1ccc(-c2nnc(SCC(=O)O)n2-c2ccccc2)cc1,5.107,-2.829,11.27,-1.363
COc1cc2c(cc1CNCc1ccnc(-n3cccn3)c1)OC(C)C2 (stereo not shown),-,1.369,-,2.19
O=S(=O)(Cc1cccc(F)c1)Nc1cc(Cl)ccn1,4.904,-4.107,9.484,10.94
CCS(=O)(=O)N1CCC(NC(=O)c2ccccc2O)CC1,-6.26,-12.89,5.076,2.632
[H][C@]12CC[C@]([H])(CN(Cc3ccccn3)C1)N(C(=O)c1cc(C(C)C)on1)C2,-5.055,-,-13.57,-
CC(c1ccc(F)c(F)c1)N1CCN(Cc2nccn2C)CC1 (stereo not shown),1.906,22.08,-41.22,-0.241
Cc1cc(C)n(CCNC(=O)c2cc(C3CC3)n[nH]2)n1,-31.36,1.737,-6.425,4.326
CC(C)(CO)N1CCN(S(=O)(=O)CCCF)CC1,2.28,4.673,-28.77,2.461
CN(C)C(C(=O)NCC1(O)CCCCC1)c1cccc(F)c1 (stereo not shown),-0.7692,1.622,-4.579,-9.091